Data on one compound can be found in US20090105343A1, “Cancer Therapy And Medicaments Therefor” (The University of Birmingham, priority 2004, published 2009).

Common to all, as to assay type: cell-based
One assay relates to RT-4. As to the kind of experiment: Proliferation assay (ATP bioluminescence), RT-4 bladder cancer cells. The settings on record: Homo sapiens; RT-4 cells, 96 h; read-out: Estimated dose required to inhibit bladder cancer cell proliferation by 50% (ED50). As for the experimental part: (§1) The action of individual agents alone and in combination was examined using a bioluminescent technique to measure changes in cellular ATP (ViaLight HS, LumiTech, Nottingham, U.K.) with previously optimised conditions according to the manufacturer's instructions (Rashid, S. F. et al. Supra). Briefly, cells were plated in 96 well white-walled tissue culture-treated plates (Fisher Scientific Ltd. Loughborough, U.K.) (cancer cell lines at 2×10^3 cells/well; PrEC at 3.5×10^3 cells/well). Growth media containing varying concentrations of SAHA, TSA, 1α,25(OH)2D3, nuclear receptor ligands were added to a final volume of 100 μl/well and plates were incubated for 96 h, with re-dosing after 48 h. After the incubation period, 100 μl of nucleotide releasing reagent was added to each well and cells were left for 30 minutes at room temperature. Liberated ATP was quantitated by adding 20 μl of ATP monitoring reagent (containing luciferin and luciferase) and measuring luminescence with a microplate luminometer (Berthold Detection Systems, Fisher Scientific Ltd.). ATP levels were recorded in relative luciferase units and growth inhibition was expressed as a percentage of control.

The subject of a further assay is HT-1376. As to the kind of experiment: Proliferation assay (ATP bioluminescence), HT-1376 bladder cancer cells. The note with it: Homo sapiens; HT-1376 cells, 96 h; read-out: Estimated dose required to inhibit bladder cancer cell proliferation by 50% (ED50). As for the experimental part: as §1
In another assay the test system is RT-112. As to the kind of experiment: Proliferation assay (ATP bioluminescence), RT-112 bladder cancer cells. The note with it: Homo sapiens; RT-112 cells, 96 h; read-out: Estimated dose required to inhibit bladder cancer cell proliferation by 50% (ED50). As for the experimental part:
as §1

The test system of the next assay is EJ-28. As to the kind of experiment: Proliferation assay (ATP bioluminescence), EJ-28 bladder cancer cells. The settings on record: Homo sapiens; EJ-28 cells, 96 h; read-out: Estimated dose required to inhibit bladder cancer cell proliferation by 50% (ED50). The procedure:
as §1

The test system of assay [1] is prostate cancer cell lines. As to the kind of experiment: Proliferation assay (ATP bioluminescence), prostate cancer cell lines, single agents and combinations. The procedure: as §1
The interactions of two compounds were assessed by measuring the mean of either the nuclear receptor ligand or the HDAC inhibitor acting alone or in combination. […]

Molecules are shown by their SMILES.

As to `O=C(CCCCCCC(=O)Nc1ccccc1)NO` [SAHA, Suberoylanilide hydroxamic acid], the EC50 with RT-4 is 2000 nM; in the assay on HT-1376, 1000 nM; in the assay on RT-112 it was 1000 nM; with EJ-28, 2000 nM; in assay [1] (common prostate cancer cell lines, SAHA alone, read-out: ED50, inhibition of proliferation), approximately 1000 nM. In assay [1] (0.5 μM), the inhibition at 0.5 µM was approximately 25%.
